These results are taken from patent publication EP0025842B1 (FUJISAWA PHARMACEUTICAL CO., LTD., priority 1979, dated 1987).

The data set is described as follows: general procedure: solution-phase peptide synthesis; isobutyl chlorocarbonate / N-methyl morpholine (mixed anhydride). As to conditions: late stage modification step.

For the substance “D-Lac-L-Ala-y-D-Glu(α-OH)-(L)-Z-(D)-mesoDAP-(L)-GlyOH”, the step yield is given as 94.7%.
